About 210 (0.4%) of roughly 52,000 sequences were called active.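 The calls were made as follows: active = gene whose silencing raises cell survival under the drug, median off-target-corrected z-score across its silencing RNAs 2 or more; inactive = the rest.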 Some of the results follow.
Experiment: Resistance to Poly (ADP-Ribose) Polymerase inhibitor: Gene Identification via Genome-wide siRNA Screen
Settings: mouse BRCA2 R2336H ES cells, olaparib, CellTiter-Glo viability; active compounds read high
Procedure, shortened: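 Genome-wide siRNA screen (3 siRNAs/gene, 20 nM) in mouse ES cells carrying hypomorphic BRCA2 R2336H; olaparib 500 nM added 48 h post-transfection, CellTiter-Glo viability 72 h later. Normalized to plate-median negative control; MAD z-scores, gene median, seed-adjusted.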
In the case of GGAGAGUCCUUCUGUGACUTT against Tce1, the z-score is reported as inactive: 0.948. For GGUGAAGCACUUUUGUCCCTT against Rhoc, the z-score was inactive: 1.25. In the case of GGAUUUAGAAGUGUUAAAGTT against Pdlim1, the z-score is reported as inactive: -0.579. With GGUGUCACCACUUAUGUUGTT against Cyp2b9 the z-score was inactive: -0.358. With GGAUCUGGAUACUUUUCCATT against Arhgap22 the z-score was inactive: 0.406. For GGGAUAGUUACAUUGAAGUTT against Acate3, the z-score was inactive: 1.33. For CCUCCAGUGCUUUUGUAUATT against Olfr1437, the z-score was inactive: 0.0203. With GCUCUAUAGUGACCAAUGUTT against Gcgr the z-score was inactive: 0.0325. For “GGAUAGUAUACUAGAAGAATT against F730047E07Rik”, the z-score was inactive: -3.11. With CGUACCAUGUAAAUUCUAUTT against Impa1 the z-score was inactive: 1.02. For GUCAGAUCUCAGAAUCAUGTT against Sr278, the z-score was inactive: 0.853. With “GGACUUCUUUGUAAUACUGTT against 9830132L24” the z-score was inactive: -0.309. With GGCAAAAACAACAACAACATT against Isg20 the z-score was inactive: -0.686. For GGGCUUUCAAUGAAUUACGTT against Zc3hdc5, the z-score was inactive: -0.871. In the case of CGAUGUUGGUAUUACUGUUTT against MGC38735, the z-score is reported as inactive: 1.42. For GGAGCCUUUCUAGCUACCUTT against Egfl9, the z-score was inactive: 0.915. For GGCAUUGACAUAGGUCAUATT against Blcap, the z-score was inactive: 0.896. For CGUUAGCAGGAUGUUAAACTT against Ropn1, the z-score was inactive: -0.641. For GCACAACAAGCGAUGUCAUTT against Myo9b, the z-score was inactive: -1.14. With GGUGUCCAGUCAAUAAGAGTT against Msx3 the z-score was inactive: -0.501. In the case of GCACCUUUGACAGAAGAACTT against Ptf1a, the z-score is reported as inactive: 0.687. In the case of GGGCCAUGCUAGAUUUGCUTT against Scamp1, the z-score is reported as inactive: 1.12. With “GGAAGUUGUAGGAGAAAACTT against D130054N24Rik” the z-score was inactive: -0.697. In the case of CCCUGUUAGUGUCUCUAUUTT against Tas2r113, the z-score is reported as inactive: 0.267. For CCCUGAUAUAUACACAUACTT against Pofut1, the z-score was inactive: -1.45. In the case of GGAAAUCGUGCCUAGUCUGTT against Cdk3, the z-score is reported as inactive: 1.1. For CCCGGUUAGCCUUUGAUUGTT against Lamc3, the z-score was inactive: 0.532. For GGCUACAAGGUUCGCUAUGTT against Fgfr1, the z-score was inactive: 0.56. With CCUUCCUAGAGUAAUCAAATT against Olfr1289 the z-score was inactive: 0.466. In the case of GGAAAAUGGGUCAAAUUUGTT against Nudt5, the z-score is reported as inactive: -0.0207. With GCAAUCCGGCGAUAAGAAUTT against BC031181 the z-score was inactive: -0.811. For GGAGAAGAGAAUCAACUGCTT against Pou2f3, the z-score was inactive: 0.293. With “GGGUCCUGCUCAACAUCAUTT against 6330569M22Rik” the z-score was inactive: -1.78. In the case of GGACAAGUCCGAGAAGACATT against Glo1, the z-score is reported as inactive: 0.2. With GGUUCUCGGUAAAUCCUGCTT against Ugalt2 the z-score was inactive: 0.92. With GGCCAAGAAGAGAAAAACATT against Ccne2 the z-score was inactive: -0.992. For GGCCAGUUGCUCAAAUUAUTT against Olfr460, the z-score was inactive: 0.316. In the case of CGAUUACUUGGAAAACCAATT against Ifnt1, the z-score is reported as inactive: -1.55. In the case of CCUAAUCUCUUGUAGGUAUTT against LOC245128, the z-score is reported as inactive: 0.00511. With “GGUUAAAAGAGGUGAUUAGTT against 1700020C11Rik” the z-score was inactive: -0.375. For GGACAGAGGCCACAGAGAATT against Hrc, the z-score was inactive: -1.23. With GGAGAAUGCACAGGUCAUGTT against Ubxd2 the z-score was inactive: -1.56. With CGAUGACGGGAAAUAAUUUTT against Snx4 the z-score was inactive: -1.76. In the case of GGAGGAUGAGCAAGACAACTT against Lbh, the z-score is reported as inactive: -1.33. For GCGUGUUCGCUUCUUGCUATT against Trub2, the z-score was inactive: -0.132. With “GGAUUCCCAACACUUGAAUTT against 2510048K03Rik” the z-score was inactive: 0.896. In the case of GGAUGUUAACAUUGAGCAATT against Asb11, the z-score is reported as inactive: 1.78. In the case of GGCAUGAAUACAUCACAGCTT against V1rh12, the z-score is reported as inactive: -0.946. With CGGAUUCAUCAGUUUGGUATT against Cdc7 the z-score was inactive: 0.728. With GCAUAGAUUGAUGGCUAAUTT against Chd8 the z-score was inactive: -2.01. In the case of GGCAUCUUUUGGGCAGCAGTT against Scrg1, the z-score is reported as inactive: 1.9. In the case of GGUAAAGAGACACAAGGUGTT against Gjb1, the z-score is reported as inactive: 0.424.

— PubChem BioAssay AID1347423 (Functional Genomics Laboratory (NCATS/FGL), 2020)
